# Data source: PubChem BioAssay AID1259308 (NCATS, 2017)
# Test: 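Knock-downs that increase output of a recombinant reporter protein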 (primary screen)
# System: human HEK293 embryonic kidney cells stably expressing firefly luciferase (HEK-CMV-Luc2-Hygro)
# Knock-down reagent: single siRNA against human genes, 0.8 pmol siRNA per well
# Timing: 72 h
# Detection: 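Luciferase light (ONE-Glo) measured on one replicate plate set and viability (CellTiter-Glo) on the other, scaled to a negative control siRNA, with robust z-scores and luciferase per cell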
# Reading the numbers: total luciferase, z-score and total luciferase, % of control: higher = more reporter protein produced; luciferase per cell, z-score: higher = more reporter output per viable cell; viable cells, % of control: higher = more viable cells
# Call rule: 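Active when the median/MAD z-score for overall luciferase is greater than 3; a gene was taken forward for validation with new siRNAs if at least two of its three siRNAs passed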
# Calls: active = raised luciferase; inactive = no rise
# In all, the deposit lists about 59,000 reagents; below is an unselected part. About 1,510 of all reagents (2.6%) count as active. 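Calls use total luciferase alone and ignore viability, so some active siRNAs may act by altering cell number.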 Reagents against one gene are numbered here.
"total luciferase, z-score","total luciferase, % of control","luciferase per cell, z-score","viable cells, % of control",Call,target,siRNA no.
0.209,86,-0.276,103,inactive,ZNF761 (GeneID 388561),1
0.986,101,0.906,89.3,inactive,ZNF761 (GeneID 388561),2
2.44,130,2.14,83,inactive,ZNF761 (GeneID 388561),3
-1.96,42.9,-2.19,85.2,inactive,CORIN (GeneID 10699),1
1.74,116,0.999,100,inactive,CORIN (GeneID 10699),2
0.303,87.9,0.0503,96.9,inactive,CORIN (GeneID 10699),3
0.793,97.7,0.914,85.8,inactive,NLRP1 (GeneID 22861),1
0.0241,82.4,0.383,83.2,inactive,NLRP1 (GeneID 22861),2
-0.489,72.2,-0.773,98.9,inactive,NLRP1 (GeneID 22861),3
-0.71,67.8,-0.227,80.4,inactive,PDCD2 (GeneID 5134),1
-1.26,56.9,-1.72,100,inactive,PDCD2 (GeneID 5134),2
0.505,91.9,1.16,75.7,inactive,PDCD2 (GeneID 5134),3
-0.0389,81.1,-0.182,95.1,inactive,SPTBN5 (GeneID 51332),1
1.9,120,1.49,90.3,inactive,SPTBN5 (GeneID 51332),2
1.42,110,1.1,92.1,inactive,SPTBN5 (GeneID 51332),3
-1.23,57.4,-1.18,87.6,inactive,OR4C15 (GeneID 81309),1
-0.0767,80.4,-0.405,99.9,inactive,OR4C15 (GeneID 81309),2
1.93,120,1.5,90.5,inactive,OR4C15 (GeneID 81309),3
0.15,84.9,0.233,89.2,inactive,EYA2 (GeneID 2139),1
-0.22,77.5,0.916,68.1,inactive,EYA2 (GeneID 2139),2
0.347,88.8,1.48,67.2,inactive,EYA2 (GeneID 2139),3

Continued, starting with the last 4 of the part before.
"total luciferase, z-score","total luciferase, % of control","luciferase per cell, z-score","viable cells, % of control",Call,target,siRNA no.
1.93,120,1.5,90.5,inactive,OR4C15 (GeneID 81309),3
0.15,84.9,0.233,89.2,inactive,EYA2 (GeneID 2139),1
-0.22,77.5,0.916,68.1,inactive,EYA2 (GeneID 2139),2
0.347,88.8,1.48,67.2,inactive,EYA2 (GeneID 2139),3
0.174,85.3,-0.253,102,inactive,FGF11 (GeneID 2256),1
0.133,84.5,1.28,67.5,inactive,FGF11 (GeneID 2256),2
-1.17,58.6,-1.06,86.7,inactive,FGF11 (GeneID 2256),3
-0.578,70.4,-0.916,100,inactive,GAS7 (GeneID 8522),1
1.76,117,1.42,89.9,inactive,GAS7 (GeneID 8522),2
-0.267,76.6,0.493,75.1,inactive,GAS7 (GeneID 8522),3
-0.284,76.2,0.883,67.5,inactive,TGFBR1 (GeneID 7046),1
1.06,103,0.0878,112,inactive,TGFBR1 (GeneID 7046),2
-0.109,79.7,1.15,65.8,inactive,TGFBR1 (GeneID 7046),3
-0.346,75,-0.277,90.2,inactive,NUP155 (GeneID 9631),1
-1.17,58.5,-0.583,76.3,inactive,NUP155 (GeneID 9631),2
-0.73,67.4,-0.311,81.7,inactive,NUP155 (GeneID 9631),3
0.546,92.7,1.11,77.5,inactive,NIPA2 (GeneID 81614),1
-1.06,60.8,-1.22,93.7,inactive,NIPA2 (GeneID 81614),2
-0.982,62.3,-1.06,92.2,inactive,NIPA2 (GeneID 81614),3
0.664,95.1,0.421,95.1,inactive,IL7 (GeneID 3574),1
-0.445,73,-0.506,93.3,inactive,IL7 (GeneID 3574),2
-0.423,73.5,-0.787,101,inactive,IL7 (GeneID 3574),3
